Measurements taken from publication PMC10286367.
These are yes or no findings as the source states them, for the method shown. In cells and extracts the contact can be indirect. Some binding calls cover weakened binding; strength is not graded here.

The chains behind the UniProt entries cited, without tags or fusion partners.
UniProt Q04207: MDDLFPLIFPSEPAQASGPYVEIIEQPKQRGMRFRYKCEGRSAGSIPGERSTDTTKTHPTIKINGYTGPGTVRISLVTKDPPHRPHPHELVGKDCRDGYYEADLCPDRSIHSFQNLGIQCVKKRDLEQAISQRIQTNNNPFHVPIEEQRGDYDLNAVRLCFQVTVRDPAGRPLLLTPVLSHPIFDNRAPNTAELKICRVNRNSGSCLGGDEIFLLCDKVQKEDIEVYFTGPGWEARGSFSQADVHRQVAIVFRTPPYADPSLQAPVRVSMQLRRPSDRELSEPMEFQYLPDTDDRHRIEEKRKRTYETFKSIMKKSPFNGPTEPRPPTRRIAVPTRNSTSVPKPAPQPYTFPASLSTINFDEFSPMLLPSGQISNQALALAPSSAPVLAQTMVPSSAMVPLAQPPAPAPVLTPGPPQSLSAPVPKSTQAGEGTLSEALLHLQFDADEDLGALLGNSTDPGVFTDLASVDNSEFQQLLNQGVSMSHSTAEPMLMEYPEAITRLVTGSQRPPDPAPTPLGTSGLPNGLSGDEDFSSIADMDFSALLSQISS

How the values were obtained:
[1] = molecular target: NF-κB p65 (mouse (endogenous in primary astrocytes and hippocampal tissue)) (UniProt Q04207); test: co-IP; endogenous reciprocal IP-WB in cultured primary mouse astrocytes; cells crosslinked with 1% formaldehyde for 10 min, lysed with IP Lysis Buffer (50 mM Tris-HCl, 0.5% Triton-X, 150 mM KCl, 1 mM EDTA); Protein A agarose beads, 4 °C
[2] = molecular target: NF-κB p65 (mouse (endogenous in primary astrocytes and hippocampal tissue)) (UniProt Q04207); test: co-IP; IP followed by WB with hippocampal tissues of Ctrl and Ogt cKO mice, and of Ctrl and AD (5XFAD) mice

binding [1]: binds
binding [2]: binds
B1: O-GlcNAc transferase (Ogt) (enzyme, UniProt Q8CGY8 1-1046)
chain: MASSVGNVADSTEPTKRMLSFQGLAELAHREYQAGDFEAAERHCMQLWRQEPDNTGVLLLLSSIHFQCRRLDRSAHFSTLAIKQNPLLAEAYSNLGNVYKERGQLQEAIEHYRHALRLKPDFIDGYINLAAALVAAGDMEGAVQAYVSALQYNPDLYCVRSDLGNLLKALGRLEEAKACYLKAIETQPNFAVAWSNLGCVFNAQGEIWLAIHHFEKAVTLDPNFLDAYINLGNVLKEARIFDRAVAAYLRALSLSPNHAVVHGNLACVYYEQGLIDLAIDTYRRAIELQPHFPDAYCNLANALKEKGSVAEAEDCYNTALRLCPTHADSLNNLANIKREQGNIEEAVRLYRKALEVFPEFAAAHSNLASVLQQQGKLQEALMHYKEAIRISPTFADAYSNMGNTLKEMQDVQGALQCYTRAIQINPAFADAHSNLASIHKDSGNIPEAIASYRTALKLKPDFPDAYCNLAHCLQIVCDWTDYDERMKKLVSIVAEQLEKNRLPSVHPHHSMLYPLSHGFRKAIAERHGNLCLDKINVLHKPPYEHPKDLKLSDGRLRVGYVSSDFGNHPTSHLMQSIPGMHNPDKFEVFCYALSPDDGTNFRVKVMAEANHFIDLSQIPCNGKAADRIHQDGIHILVNMNGYTKGARNELFALRPAPIQAMWLGYPGTSGALFMDYIITDQETSPAEVAEQYSEKLAYMPHTFFIGDHANMFPHLKKKAVIDFKSNGHIYDNRIVLNGIDLKAFLDSLPDVKIVKMKCPDGGDNPDSSNTALNMPVIPMNTIAEAVIEMINRGQIQITINGFSISNGLATTQINNKAATGEEVPRTIIVTTRSQYGLPEDAIVYCNFNQLYKIDPSTLQMWANILKRVPNSVLWLLRFPAVGEPNIQQYAQNMGLPQNRIIFSPVAPKEEHVRRGQLADVCLDTPLCNGHTTGMDVLWAGTPMVTMPGETLASRVAASQLTCLGCLELIAKSRQEYEDIAVKLGTDLEYLKKIRGKVWKQRISSPLFNTKQYTMELERLYLQMWEHYAAGNKPDHMIKPVEVTESA
